{"sequences": {"note": "Protein sequences, listed by entry. Tags and fused reporters are not part of them. Lines headed by an entry give the natural chain unless they say otherwise; changes in a name come on top.", "UniProt P35227": "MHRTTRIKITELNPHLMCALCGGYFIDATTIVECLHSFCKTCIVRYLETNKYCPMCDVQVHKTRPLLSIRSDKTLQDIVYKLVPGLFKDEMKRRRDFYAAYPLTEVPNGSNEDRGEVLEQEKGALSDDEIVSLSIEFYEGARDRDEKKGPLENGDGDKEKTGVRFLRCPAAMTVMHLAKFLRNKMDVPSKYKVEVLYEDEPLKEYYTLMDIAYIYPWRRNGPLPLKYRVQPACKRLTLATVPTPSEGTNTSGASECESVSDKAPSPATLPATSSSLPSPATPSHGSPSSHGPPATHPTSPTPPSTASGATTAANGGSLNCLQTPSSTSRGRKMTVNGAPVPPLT", "UniProt Q9Y3E1": "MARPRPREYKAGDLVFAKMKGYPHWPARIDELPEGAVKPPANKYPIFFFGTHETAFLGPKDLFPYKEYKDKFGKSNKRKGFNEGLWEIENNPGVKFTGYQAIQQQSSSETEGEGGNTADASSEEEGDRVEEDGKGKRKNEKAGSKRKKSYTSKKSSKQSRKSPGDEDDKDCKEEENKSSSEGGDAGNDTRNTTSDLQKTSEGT", "UniProt Q00341": "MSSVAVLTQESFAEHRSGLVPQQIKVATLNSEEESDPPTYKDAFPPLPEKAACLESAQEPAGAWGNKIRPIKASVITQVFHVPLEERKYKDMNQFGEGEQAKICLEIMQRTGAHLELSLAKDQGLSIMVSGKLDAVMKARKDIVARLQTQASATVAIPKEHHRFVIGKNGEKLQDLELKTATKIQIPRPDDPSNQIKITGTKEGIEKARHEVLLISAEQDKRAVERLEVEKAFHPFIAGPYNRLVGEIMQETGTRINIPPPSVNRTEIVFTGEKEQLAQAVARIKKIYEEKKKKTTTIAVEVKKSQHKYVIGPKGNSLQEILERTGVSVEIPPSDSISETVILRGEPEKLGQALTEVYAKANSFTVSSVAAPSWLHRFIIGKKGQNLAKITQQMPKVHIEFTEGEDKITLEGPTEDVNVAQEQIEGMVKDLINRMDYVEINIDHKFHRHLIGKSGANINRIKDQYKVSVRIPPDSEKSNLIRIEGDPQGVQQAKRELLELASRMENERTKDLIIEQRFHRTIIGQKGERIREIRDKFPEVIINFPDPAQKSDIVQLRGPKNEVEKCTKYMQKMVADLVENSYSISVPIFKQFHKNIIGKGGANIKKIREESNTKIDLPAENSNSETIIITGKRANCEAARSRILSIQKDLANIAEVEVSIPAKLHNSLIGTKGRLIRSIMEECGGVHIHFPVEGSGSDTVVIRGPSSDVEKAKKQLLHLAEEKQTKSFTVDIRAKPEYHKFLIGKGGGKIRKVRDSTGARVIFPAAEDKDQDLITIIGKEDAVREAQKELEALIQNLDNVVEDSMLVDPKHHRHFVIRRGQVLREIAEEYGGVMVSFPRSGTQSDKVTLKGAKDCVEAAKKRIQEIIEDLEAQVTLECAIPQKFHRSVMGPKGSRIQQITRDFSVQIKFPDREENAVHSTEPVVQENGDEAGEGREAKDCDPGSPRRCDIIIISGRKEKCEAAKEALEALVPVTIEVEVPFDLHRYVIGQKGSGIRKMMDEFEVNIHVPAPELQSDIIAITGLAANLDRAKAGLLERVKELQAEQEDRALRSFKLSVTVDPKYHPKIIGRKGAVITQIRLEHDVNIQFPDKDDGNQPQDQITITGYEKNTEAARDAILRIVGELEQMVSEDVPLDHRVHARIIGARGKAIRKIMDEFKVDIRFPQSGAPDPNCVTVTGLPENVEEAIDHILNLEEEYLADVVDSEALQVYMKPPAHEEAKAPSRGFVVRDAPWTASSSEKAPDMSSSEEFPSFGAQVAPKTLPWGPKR", "UniProt Q9BXJ8": "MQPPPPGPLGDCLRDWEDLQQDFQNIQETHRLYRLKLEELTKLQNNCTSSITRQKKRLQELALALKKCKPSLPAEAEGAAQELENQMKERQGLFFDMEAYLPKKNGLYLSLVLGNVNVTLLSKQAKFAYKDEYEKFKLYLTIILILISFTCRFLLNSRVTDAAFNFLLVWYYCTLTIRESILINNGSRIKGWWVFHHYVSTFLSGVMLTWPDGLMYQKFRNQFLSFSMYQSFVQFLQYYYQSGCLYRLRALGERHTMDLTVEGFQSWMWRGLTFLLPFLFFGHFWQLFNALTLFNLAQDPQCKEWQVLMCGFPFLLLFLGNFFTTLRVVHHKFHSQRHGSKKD", "UniProt Q9BSV6": "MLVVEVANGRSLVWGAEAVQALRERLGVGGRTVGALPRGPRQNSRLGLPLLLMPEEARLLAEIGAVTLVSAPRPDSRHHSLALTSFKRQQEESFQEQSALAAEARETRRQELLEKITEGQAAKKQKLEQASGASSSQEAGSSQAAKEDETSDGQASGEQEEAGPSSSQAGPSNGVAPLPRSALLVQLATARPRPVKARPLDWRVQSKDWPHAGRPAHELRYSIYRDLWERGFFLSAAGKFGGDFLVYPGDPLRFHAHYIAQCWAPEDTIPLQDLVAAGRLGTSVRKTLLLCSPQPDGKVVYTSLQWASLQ", "UniProt P0C1Z6, whole entry": "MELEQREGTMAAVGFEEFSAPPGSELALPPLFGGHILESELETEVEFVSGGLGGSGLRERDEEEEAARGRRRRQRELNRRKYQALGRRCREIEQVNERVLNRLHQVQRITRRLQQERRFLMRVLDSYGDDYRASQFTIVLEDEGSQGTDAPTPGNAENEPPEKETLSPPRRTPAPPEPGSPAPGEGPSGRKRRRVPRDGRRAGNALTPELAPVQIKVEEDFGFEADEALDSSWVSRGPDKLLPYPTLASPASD", "UniProt O75503": "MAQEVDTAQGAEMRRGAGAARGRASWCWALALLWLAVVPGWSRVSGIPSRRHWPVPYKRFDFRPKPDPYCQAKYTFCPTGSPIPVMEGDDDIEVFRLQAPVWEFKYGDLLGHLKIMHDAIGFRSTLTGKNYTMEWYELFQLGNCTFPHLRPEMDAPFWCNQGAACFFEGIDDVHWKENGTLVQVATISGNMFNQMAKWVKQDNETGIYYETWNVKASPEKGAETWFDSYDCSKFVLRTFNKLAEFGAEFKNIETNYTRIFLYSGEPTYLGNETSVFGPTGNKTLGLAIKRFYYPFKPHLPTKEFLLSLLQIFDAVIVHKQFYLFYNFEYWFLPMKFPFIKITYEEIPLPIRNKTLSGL", "UniProt P25787": "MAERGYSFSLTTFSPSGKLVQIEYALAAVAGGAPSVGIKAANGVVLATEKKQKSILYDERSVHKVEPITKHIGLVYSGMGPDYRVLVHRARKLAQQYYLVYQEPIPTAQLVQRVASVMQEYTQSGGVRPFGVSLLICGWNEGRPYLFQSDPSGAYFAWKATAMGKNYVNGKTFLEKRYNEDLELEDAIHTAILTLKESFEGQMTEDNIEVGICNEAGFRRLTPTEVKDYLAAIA", "UniProt Q14241": "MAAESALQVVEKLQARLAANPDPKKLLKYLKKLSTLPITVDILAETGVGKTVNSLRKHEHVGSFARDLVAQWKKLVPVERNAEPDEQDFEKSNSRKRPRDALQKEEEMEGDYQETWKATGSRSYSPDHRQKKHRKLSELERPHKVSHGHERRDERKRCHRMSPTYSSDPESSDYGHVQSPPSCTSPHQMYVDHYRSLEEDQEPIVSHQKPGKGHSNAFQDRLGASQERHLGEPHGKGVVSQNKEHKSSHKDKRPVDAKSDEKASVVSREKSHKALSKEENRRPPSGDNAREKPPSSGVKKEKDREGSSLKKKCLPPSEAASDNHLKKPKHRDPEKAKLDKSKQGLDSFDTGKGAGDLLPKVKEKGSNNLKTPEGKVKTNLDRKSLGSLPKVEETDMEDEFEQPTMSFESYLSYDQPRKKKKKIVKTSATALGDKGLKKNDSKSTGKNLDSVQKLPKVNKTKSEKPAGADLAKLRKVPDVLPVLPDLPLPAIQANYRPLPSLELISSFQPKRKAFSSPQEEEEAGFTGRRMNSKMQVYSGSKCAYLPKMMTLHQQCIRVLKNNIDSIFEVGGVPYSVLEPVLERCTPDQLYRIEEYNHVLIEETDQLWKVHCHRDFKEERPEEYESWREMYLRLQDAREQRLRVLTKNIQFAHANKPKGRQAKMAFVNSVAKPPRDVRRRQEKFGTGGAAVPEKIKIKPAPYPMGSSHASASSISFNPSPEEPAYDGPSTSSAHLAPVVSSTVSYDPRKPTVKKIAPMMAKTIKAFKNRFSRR", "UniProt Q16670": "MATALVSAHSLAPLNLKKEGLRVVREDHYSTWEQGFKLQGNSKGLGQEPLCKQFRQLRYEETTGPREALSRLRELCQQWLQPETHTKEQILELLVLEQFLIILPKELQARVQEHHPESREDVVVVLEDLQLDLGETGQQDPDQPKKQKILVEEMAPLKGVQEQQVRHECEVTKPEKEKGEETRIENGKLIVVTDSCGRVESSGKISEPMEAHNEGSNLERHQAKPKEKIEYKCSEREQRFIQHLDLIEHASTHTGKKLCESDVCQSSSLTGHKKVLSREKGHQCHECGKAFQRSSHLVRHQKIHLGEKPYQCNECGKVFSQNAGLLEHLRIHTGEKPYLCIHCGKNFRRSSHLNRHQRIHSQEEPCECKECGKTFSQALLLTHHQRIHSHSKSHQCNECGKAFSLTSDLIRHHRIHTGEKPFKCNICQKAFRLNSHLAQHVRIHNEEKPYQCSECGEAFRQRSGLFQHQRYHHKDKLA", "UniProt Q9UMR5": "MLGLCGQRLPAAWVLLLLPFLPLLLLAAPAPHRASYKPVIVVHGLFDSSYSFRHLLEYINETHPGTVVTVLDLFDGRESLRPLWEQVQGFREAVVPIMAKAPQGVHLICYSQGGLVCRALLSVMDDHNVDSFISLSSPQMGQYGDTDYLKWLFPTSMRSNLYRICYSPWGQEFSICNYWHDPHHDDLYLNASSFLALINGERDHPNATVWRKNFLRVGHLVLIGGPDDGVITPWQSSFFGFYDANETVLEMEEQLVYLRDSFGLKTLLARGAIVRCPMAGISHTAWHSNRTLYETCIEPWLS", "UniProt P46379": "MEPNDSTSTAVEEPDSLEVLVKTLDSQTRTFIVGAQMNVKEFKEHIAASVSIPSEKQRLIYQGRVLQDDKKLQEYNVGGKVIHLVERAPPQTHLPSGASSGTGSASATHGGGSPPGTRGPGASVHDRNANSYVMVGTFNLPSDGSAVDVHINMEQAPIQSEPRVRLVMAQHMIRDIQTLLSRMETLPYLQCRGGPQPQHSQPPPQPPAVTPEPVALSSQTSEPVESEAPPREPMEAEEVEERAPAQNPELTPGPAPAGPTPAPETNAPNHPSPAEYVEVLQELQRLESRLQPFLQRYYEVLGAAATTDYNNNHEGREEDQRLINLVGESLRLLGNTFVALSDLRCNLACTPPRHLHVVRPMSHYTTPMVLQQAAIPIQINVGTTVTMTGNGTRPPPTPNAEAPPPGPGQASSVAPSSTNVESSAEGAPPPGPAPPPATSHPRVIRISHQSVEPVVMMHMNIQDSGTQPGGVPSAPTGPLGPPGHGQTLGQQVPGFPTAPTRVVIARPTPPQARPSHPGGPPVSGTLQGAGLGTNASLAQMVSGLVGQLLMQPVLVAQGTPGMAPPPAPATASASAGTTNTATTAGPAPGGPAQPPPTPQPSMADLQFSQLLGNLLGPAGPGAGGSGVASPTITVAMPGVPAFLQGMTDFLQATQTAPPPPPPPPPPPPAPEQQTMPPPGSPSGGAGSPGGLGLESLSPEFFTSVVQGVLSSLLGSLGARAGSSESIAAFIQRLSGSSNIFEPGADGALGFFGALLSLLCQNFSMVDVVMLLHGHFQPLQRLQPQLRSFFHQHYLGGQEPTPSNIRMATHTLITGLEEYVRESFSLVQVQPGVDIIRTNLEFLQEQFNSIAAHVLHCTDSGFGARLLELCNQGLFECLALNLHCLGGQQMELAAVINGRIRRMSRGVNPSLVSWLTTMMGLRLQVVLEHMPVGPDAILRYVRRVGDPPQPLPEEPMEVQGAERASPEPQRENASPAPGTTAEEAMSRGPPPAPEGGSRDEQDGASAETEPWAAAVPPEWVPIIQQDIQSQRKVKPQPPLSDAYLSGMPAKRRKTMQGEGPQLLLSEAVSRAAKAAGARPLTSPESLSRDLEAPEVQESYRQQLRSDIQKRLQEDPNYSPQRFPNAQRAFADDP"}, "source": "the supplement of paper PMC6411743", "assay_in_all_cases": "NP40-soluble protein abundance relative to vehicle (solubility fold change) (ratio); higher = more soluble protein in presence of ATP", "key": {"A0A024R1V6|P35227": {"molecular_target": "A0A024R1V6|P35227 (UniProt P35227)", "procedure,_shortened": "(§1)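 Jurkat crude lysate prepared with a Dounce homogeniser was treated at eight concentrations spanning 0.1 to 10 mM, 10 min at room temperature then 3 min at 37 °C. Solubilisation with 0.8% NP40 and benzonase and ultracentrifugation preceded TMT labelling of the supernatant for LC-MS/MS. Fold change against the detergent-processed vehicle was determined per replicate from vsn-normalised intensities, across three independent experiments.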"}, "A0A024R216|Q9Y3E1": {"molecular_target": "A0A024R216|Q9Y3E1 (UniProt Q9Y3E1)", "procedure,_shortened": "as §1"}, "A0A024R4E5": {"molecular_target": "A0A024R4E5 (UniProt Q00341)", "procedure,_shortened": "as §1"}, "[1]": {"molecular_target": "A0A024R4K9|A0A087WZA9|A0A087X266|Q9BXJ8 and related entries (UniProt Q9BXJ8)", "procedure,_shortened": "as §1"}, "A0A024R4M0|P46781": {"molecular_target": "A0A024R4M0|P46781 (UniProt P46781)", "procedure,_shortened": "as §1"}, "[2]": {"molecular_target": "A0A024R4N9|A0A0G2JNK5|A9C4B9 and related entries (UniProt Q9BSV6)", "procedure,_shortened": "as §1"}, "[3]": {"molecular_target": "A0A024R4Q5|G5E9B5 and related entries (UniProt P0C1Z6)", "procedure,_shortened": "as §1"}, "A0A024R644|O75503": {"molecular_target": "A0A024R644|O75503 (UniProt O75503)", "procedure,_shortened": "as §1"}, "A0A024RA52|P25787": {"molecular_target": "A0A024RA52|P25787 (UniProt P25787)", "procedure,_shortened": "as §1"}, "A0A024RAC6": {"molecular_target": "A0A024RAC6 (UniProt Q14241)", "procedure,_shortened": "as §1"}, "[4]": {"molecular_target": "A0A024RCN4|A0A087X2F1|Q16670 and related entries (UniProt Q16670)", "procedure,_shortened": "as §1"}, "[5]": {"molecular_target": "A0A024RCQ8|A0A0G2JH76|A0A140T8X7|Q9UMR5 and related entries (UniProt Q9UMR5)", "procedure,_shortened": "as §1"}, "[6]": {"molecular_target": "A0A024RCR6|A0A0G2JK23|P46379 and related entries (UniProt P46379)", "procedure,_shortened": "as §1"}, "A0A067XG54": {"molecular_target": "T1, A0A067XG54 (UniProt Q8NB49)", "T1 sequence (whole entry)": "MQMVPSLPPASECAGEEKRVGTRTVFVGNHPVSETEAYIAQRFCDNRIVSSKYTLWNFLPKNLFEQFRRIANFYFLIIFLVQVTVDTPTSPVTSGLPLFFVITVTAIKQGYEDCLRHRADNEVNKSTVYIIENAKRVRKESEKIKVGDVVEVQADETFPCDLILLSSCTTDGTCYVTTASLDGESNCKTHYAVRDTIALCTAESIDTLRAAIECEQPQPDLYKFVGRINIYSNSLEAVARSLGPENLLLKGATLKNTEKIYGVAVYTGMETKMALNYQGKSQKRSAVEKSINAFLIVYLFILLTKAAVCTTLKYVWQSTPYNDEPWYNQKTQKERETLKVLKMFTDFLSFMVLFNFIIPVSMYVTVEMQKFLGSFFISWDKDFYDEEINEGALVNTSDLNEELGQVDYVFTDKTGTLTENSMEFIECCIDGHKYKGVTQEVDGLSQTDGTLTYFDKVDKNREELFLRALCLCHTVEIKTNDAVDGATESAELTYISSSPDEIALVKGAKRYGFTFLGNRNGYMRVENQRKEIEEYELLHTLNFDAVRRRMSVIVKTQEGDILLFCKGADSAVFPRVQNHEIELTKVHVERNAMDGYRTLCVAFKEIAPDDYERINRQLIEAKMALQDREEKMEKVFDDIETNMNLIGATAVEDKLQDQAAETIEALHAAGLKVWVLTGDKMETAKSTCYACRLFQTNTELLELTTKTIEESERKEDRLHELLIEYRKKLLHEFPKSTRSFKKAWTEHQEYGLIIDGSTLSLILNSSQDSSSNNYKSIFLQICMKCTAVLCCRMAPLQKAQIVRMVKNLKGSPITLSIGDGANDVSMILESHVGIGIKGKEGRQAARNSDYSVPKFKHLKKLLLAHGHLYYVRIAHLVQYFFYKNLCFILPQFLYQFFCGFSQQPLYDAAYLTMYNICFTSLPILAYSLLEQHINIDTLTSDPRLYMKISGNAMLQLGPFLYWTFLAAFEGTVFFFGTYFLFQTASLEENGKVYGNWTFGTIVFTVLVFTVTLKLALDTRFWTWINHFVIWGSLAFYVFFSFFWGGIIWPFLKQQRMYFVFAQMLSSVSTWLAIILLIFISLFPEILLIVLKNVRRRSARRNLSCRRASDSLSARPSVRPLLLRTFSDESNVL", "procedure,_shortened": "as §1"}}, "note": "± gives the standard deviation of the averaged measurements. The entries are a selection whose mix differs from that of the whole data set. Small differences around the control level are noise."}
{"smiles": "Nc1ncnc2c1ncn2[C@@H]1O[C@H](COP(=O)(O)OP(=O)(O)OP(=O)(O)O)[C@@H](O)[C@H]1O", "note": "[adenosine triphosphate]", "values": [{"measurement": "NP40-soluble protein abundance", "setting": "A0A024R1V6|P35227; concentration: 0.1mM", "result": "1.05 ± 0.044"}, {"measurement": "NP40-soluble protein abundance", "setting": "A0A024R1V6|P35227; concentration: 0.5mM", "result": "1.07 ± 0.075"}, {"measurement": "NP40-soluble protein abundance", "setting": "A0A024R216|Q9Y3E1; concentration: 0.1mM", "result": "0.973 ± 0.014"}, {"measurement": "NP40-soluble protein abundance", "setting": "A0A024R216|Q9Y3E1; concentration: 0.5mM", "result": "0.998 ± 0.039"}, {"measurement": "NP40-soluble protein abundance", "setting": "A0A024R4E5; concentration: 0.1mM", "result": "1.01 ± 0.032"}, {"measurement": "NP40-soluble protein abundance", "setting": "A0A024R4E5; concentration: 0.5mM", "result": "0.949 ± 0.05"}, {"measurement": "NP40-soluble protein abundance", "setting": "[1]; concentration: 0.1mM", "result": "1.07 ± 0.045"}, {"measurement": "NP40-soluble protein abundance", "setting": "[1]; concentration: 0.5mM", "result": "1.03 ± 0.096"}, {"measurement": "NP40-soluble protein abundance", "setting": "A0A024R4M0|P46781; concentration: 0.1mM", "result": "0.914 ± 0.029"}, {"measurement": "NP40-soluble protein abundance", "setting": "A0A024R4M0|P46781; concentration: 0.5mM", "result": "0.848 ± 0.13"}, {"measurement": "NP40-soluble protein abundance", "setting": "[2]; concentration: 0.1mM", "result": "1.01 ± 0.059"}, {"measurement": "NP40-soluble protein abundance", "setting": "[2]; concentration: 0.5mM", "result": "1.09 ± 0.15"}, {"measurement": "NP40-soluble protein abundance", "setting": "[3]; concentration: 0.1mM", "result": "1.11 ± 0.083"}, {"measurement": "NP40-soluble protein abundance", "setting": "[3]; concentration: 0.5mM", "result": "1.05 ± 0.029"}, {"measurement": "NP40-soluble protein abundance", "setting": "A0A024R644|O75503; concentration: 0.1mM", "result": "0.953 ± 0.023"}, {"measurement": "NP40-soluble protein abundance", "setting": "A0A024R644|O75503; concentration: 0.5mM", "result": "0.954 ± 0.036"}, {"measurement": "NP40-soluble protein abundance", "setting": "A0A024RA52|P25787; concentration: 0.1mM", "result": "0.952 ± 0.055"}, {"measurement": "NP40-soluble protein abundance", "setting": "A0A024RA52|P25787; concentration: 0.5mM", "result": "0.95 ± 0.061"}, {"measurement": "NP40-soluble protein abundance", "setting": "A0A024RAC6; concentration: 0.1mM", "result": "0.967 ± 0.044"}, {"measurement": "NP40-soluble protein abundance", "setting": "A0A024RAC6; concentration: 0.5mM", "result": "0.963 ± 0.019"}, {"measurement": "NP40-soluble protein abundance", "setting": "[4]; concentration: 0.1mM", "result": "1.05 ± 0.013"}, {"measurement": "NP40-soluble protein abundance", "setting": "[4]; concentration: 0.5mM", "result": "1.05 ± 0.055"}, {"measurement": "NP40-soluble protein abundance", "setting": "[5]; concentration: 0.1mM", "result": "0.936 ± 0.01"}, {"measurement": "NP40-soluble protein abundance", "setting": "[5]; concentration: 0.5mM", "result": "0.951 ± 0.041"}, {"measurement": "NP40-soluble protein abundance", "setting": "[6]; concentration: 0.1mM", "result": "0.98 ± 0.047"}, {"measurement": "NP40-soluble protein abundance", "setting": "[6]; concentration: 0.5mM", "result": "0.955 ± 0.064"}, {"measurement": "NP40-soluble protein abundance", "setting": "A0A067XG54; concentration: 0.1mM", "result": "1.05 ± 0.076"}, {"measurement": "NP40-soluble protein abundance", "setting": "A0A067XG54; concentration: 0.5mM", "result": "1.06 ± 0.056"}]}
